Results as given in patent US20060166934A1, “Composition comprising phytosphingosine derivatives for apoptosis induction” (Tae-Yoon Kim, priority 2002, published 2006).
Some results were stated once for a whole list of compounds, not compound by compound.

How the values were obtained:
[1] = system: human umbilical vein endothelial cells (HUVEC); assay: MTT assay, cytotoxicity in HUVEC; type: cell-based; conditions: 30 μM
Method: (§1) Firstly, the cytotoxicity is measured by the MTT assay. Phytosphingosine (PS), phytosphingosine-HCl (PS-HCl), C6-phytosphingosine (C6-PS), CLA-phytosphingosine (CLA-PS), tetraacetyl phytosphingosine (TAPS), and N-acetyl phytosphingosine (NAPS) are dissolved into DMSO to have the final concentration of 1-100 μM.
(§2) In order to study the effects of the compositions of the present invention on the cytotoxicity in the human keratinocyte cell line HaCaT cells, the cell viability is analyzed by the MTT (3-[4,5-dimethylthiazol-2-yl]-2,5-diphenyltetrazolium bromide) assay. HaCaT cells are supplied by Professor N. Fuseng of German Cancer Research in Germany. HaCaT cells are seeded in a density of 1×10^6 cells in a […] and cultured in DMEM (Dulbecco's Modified Eagle Medium) containing 10% fetal bovine serum (FBS, GIBCO), 100 units/ml penicillin, and 100 μg/ml streptomycin for 48 hours. They are treated with trypsin and 1-2×10^4 cells per well are seeded again in a 96-well plate by using a serum-free culture medium, about 3 hours after which they are cultured by treatment with phytosphingosine derivatives. After they are cultured for 24 hours, the MTT reagent is added at a concentration of 2 mg/ml, cultured for 4 hours, suspended in DMSO after removing the culture medium completely in order to measure O.D. at 540 nm. C2-ceramide is used for comparison. […]

[2] = system: A431 cells, human skin cancer cell line; assay: MTT assay, cytotoxicity in human skin cancer cell line; type: cell-based; conditions: 50 μM
Method: as §1, §2

HaCaT cells = assay: MTT assay, combined treatment with UVB irradiation; type: cell-based, human; conditions: combined use of administration and irradiation of UVB
Method: In order to study the synergistic effect in the cytotoxicity by the cotreatment with administration of the compositions of the present invention and with UVB irradiation, the cell viability is analyzed by MTT assay method in HaCaT cells. On a 100-mm dish, 1×10^6 HaCaT cells are seeded and cultured in DMEM containing 10% fetal bovine serum, 100 units/ml penicillin, and 100 μg/ml streptomycin for 48 hours. They are treated with trypsin, and 1-2×10^4 cells per well are seeded on a 96-well plate again by using a serum-free medium, which is removed after about 3 hours. HaCaT cells are washed with PBS three times, and 3.5 ml of PBS per plate is added. It is then irradiated with 200 J/m^2 of UVB. After irradiation, the medium is replaced with a DMEM medium. Then it is treated with the phytosphingosine derivatives of the present invention, and cultured for 24 hours. After 2 mg/ml of the MTT reagent is added, it is cultured for 4 hours. The medium is removed completely, the cells are suspended in DMSO, and O.D. is measured at 540 nm.

| Compound | cytotoxicity [1] | cytotoxicity [2] | cytotoxic effect (HaCaT cells) |
| --- | --- | --- | --- |
| tetraacetyl phytosphingosine [TAPS] | 86-91% | 95-98% | ≥ 98% |
| CCCCCCCCCCCCCC[C@@H](O)[C@@H](O)[C@H](CO)NC(C)=O [NAPS, N-acetyl phytosphingosine] |  |  | ≥ 98% |
